The values that follow come from publication PMC7419011.

Results are given in words; binding and its absence hold for the method and conditions named. Binding seen in cells or lysates may run through a third protein. A result given as binding can be weak or reduced; the word gives no strength. Where a sequence is shown, tags or fusion partners need not be part of it.

This experiment has as its target T1, TGB1-YFPc (TGB1 fused with the C-terminal half of YFP, 35S promoter) (Barley stripe mosaic virus) (UniProt P04867).
T1 sequence: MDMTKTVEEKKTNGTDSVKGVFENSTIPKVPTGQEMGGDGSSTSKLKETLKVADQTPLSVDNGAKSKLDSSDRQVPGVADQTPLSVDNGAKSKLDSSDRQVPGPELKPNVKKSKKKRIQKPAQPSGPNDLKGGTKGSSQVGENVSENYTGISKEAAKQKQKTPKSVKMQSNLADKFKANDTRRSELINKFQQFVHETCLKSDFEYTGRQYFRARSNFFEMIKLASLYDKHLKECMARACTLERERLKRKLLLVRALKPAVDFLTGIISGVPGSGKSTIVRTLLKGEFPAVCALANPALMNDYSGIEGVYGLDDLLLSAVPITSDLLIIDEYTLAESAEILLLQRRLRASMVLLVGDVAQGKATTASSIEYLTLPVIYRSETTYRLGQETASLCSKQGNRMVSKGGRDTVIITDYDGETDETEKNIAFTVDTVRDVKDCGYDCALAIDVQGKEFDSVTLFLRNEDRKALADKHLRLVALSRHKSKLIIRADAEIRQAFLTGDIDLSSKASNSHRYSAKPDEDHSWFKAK
Put plainly: split reporter; BiFC, YFPn and YFPc fusions under the 35S promoter co-expressed in N. benthamiana leaves by agroinfiltration, confocal microscopy at 3 dpi.
Turning to “γb_(1-24)-YFPn (Barley stripe mosaic virus) (domain or fragment)”, the binding entry is “no binding”.

As for “γb_(1-85)-YFPn (Barley stripe mosaic virus) (domain or fragment)”, the binding result is “binds”.

For “γb_(19-47)-YFPn (Barley stripe mosaic virus) (domain or fragment)”, the binding entry is given as “no binding”.

Regarding “γb_(60-85)-YFPn (Barley stripe mosaic virus) (domain or fragment)”, the binding entry was “no binding”.

Take “γb_(86-152)-YFPn (Barley stripe mosaic virus) (domain or fragment)”: the binding entry is reported as “no binding”.
